# Measured values from the supplement of paper PMC4604168 (melanoma cell lines).
# The other results are listed elsewhere or left out. Single values are uncertain, as repeats are few or missing.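 The apoptosis fraction was the count of cleaved-PARP antibody-stained nuclei relative to all DNA-stained nuclei, imaged in 1,536-well plates. Screening doses were set so most cells survived, and baseline and induced cleaved-PARP levels vary greatly across cell lines.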
# Assays:
# Assay in all cases: cleaved PARP positive nuclei fraction relative to DMSO control; melanoma cells; higher = more apoptosis
# Conditions in all cases: library dose: low library concentration; 72 h
# MZ2-MEL = system: MZ2-MEL
# MeWo = system: MeWo
# RPMI7951 = system: RPMI7951
# RVH-421 = system: RVH-421
# SkMel28 = system: SkMel28
# SkMel2 = system: SkMel2
# SkMel30 = system: SkMel30
# SkMel5 = system: SkMel5
# UACC257 = system: UACC257
# UACC62 = system: UACC62
# WM115 = system: WM115
# WM1716 = system: WM1716
# WM1745 = system: WM1745
# WM3526 = system: WM3526
# WM3619 = system: WM3619
# WM451Lu = system: WM451Lu
Structure (SMILES),cleaved PARP positive nuclei fraction (MZ2-MEL),cleaved PARP positive nuclei fraction (MeWo),cleaved PARP positive nuclei fraction (RPMI7951),cleaved PARP positive nuclei fraction (RVH-421),cleaved PARP positive nuclei fraction (SkMel28),cleaved PARP positive nuclei fraction (SkMel2),cleaved PARP positive nuclei fraction (SkMel30),cleaved PARP positive nuclei fraction (SkMel5),cleaved PARP positive nuclei fraction (UACC257),cleaved PARP positive nuclei fraction (UACC62),cleaved PARP positive nuclei fraction (WM115),cleaved PARP positive nuclei fraction (WM1716),cleaved PARP positive nuclei fraction (WM1745),cleaved PARP positive nuclei fraction (WM3526),cleaved PARP positive nuclei fraction (WM3619),cleaved PARP positive nuclei fraction (WM451Lu)
"COCC[n+]1c2c(n(Cc3cnccn3)c1C)C(=O)c1ccccc1C2=O + Cc1ccc(NC(=O)c2cccc(N(C)C)c2)cc1NC(=O)c1ccc(O)cc1 [ZM336372] (first compound 0.0004 µM, partner dose 2 µM)",153%,110%,269%,143%,27.8%,166%,73.6%,226%,101%,94.8%,27.3%,60.1%,99.6%,67.4%,83.8%,58%
"OCc1c[nH]c2ccccc12 [Indole-3-carbinol] + Cc1ccc(NC(=O)c2cccc(N(C)C)c2)cc1NC(=O)c1ccc(O)cc1 [ZM336372] (first compound 0.8 µM, partner dose 2 µM)",101%,208%,79.7%,117%,45.6%,92.7%,614%,43.7%,126%,98.4%,44.8%,192%,164%,226%,115%,170%
"CC1(C)NC(=O)N(c2ccc([N+](=O)[O-])c(C(F)(F)F)c2)C1=O [nilutamide] + CN(NC(=O)CC(=O)NN(C)C(=S)c1ccccc1)C(=S)c1ccccc1 [STA4783] (first compound 1 µM, partner dose 0.006 µM)",201%,197%,156%,60%,164%,40.9%,138%,37.5%,210%,100%,188%,113%,154%,732%,186%,41.1%
"Cc1ccc(NC(=O)c2cccc(N(C)C)c2)cc1NC(=O)c1ccc(O)cc1 + CN(C)S(=O)(=O)c1ccc2c(c1)/C(=C/c1cc3c([nH]1)CCCC3)C(=O)N2 [SU6656] (first compound 2 µM, partner dose 0.4 µM)",56.3%,108%,95.1%,147%,269%,50%,111%,42.5%,89.6%,67%,416%,81.9%,104%,456%,105%,220%
